Experiment [1] concerns the target mRAGE-ΔV (mouse). The experiment can be described thus: immunocytochemistry, 250 nM on transfected CHO cells, anti-human Fc detection.
Experiment [2] addresses mRAGE-ΔV-C1 (mouse). The description is as above.

No constants are given. Whether binding was seen depends on the method and setting. Binding calls can cover weak binding; strength is not graded here. Sequences can lack the tags named with a protein.

B1: VHH 5-Fc (Fc fusion, not shown: a dimerising Fc or GST)
chain: EVQLVESGGGLVQPGGSLRLSCAASGTIFSLNPMGWYRQAPGKQLELVALISDSGTANYADFVRGRFTISRDTTKKTLYLQMNSLEPEDTAVYYCRSTFAAGNFYWGQGTQVTVSS
Take B1: the binding result in experiment [1] and in experiment [2] was “binds” each time.

B2: VHH 2-Fc (Fc fusion, not shown: a dimerising Fc or GST)
chain: QVQLVQSGGGLVQAGGSLRLSCAASGSVSSIYAMGWYRQAPGKQREWVTTITGRGITDYAASVKGRFTISRDTAKNAVYLQMNNLKPEDTARYYCKIDRRGYAPYWGQGTQVTVSS
With B2, the binding result in experiment [1] and in experiment [2] was “binds” each time.

For the origin of these results see patent publication US20260274944A1.
